# Results published in PubChem BioAssay AID2685 (National Center for Advancing Translational Sciences (NCATS), 2010).
# Some of the results follow. Shown are side measurements of this screen, not its main read-out; they come without a call. Compounds called inactive in the main read-out are mostly missing here. Words in brackets tell the shape of the fitted curve; partial curves, single points and poor fits give uncertain potencies.
# Assay: qHTS Assay for Lipid Storage Modulators in Drosophila S3 Cells;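 as to cell number change: cells counted by Cell Tracker Red CMTPX staining in the red channel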
# Details: BODIPY lipid droplet fluorescence, 18-24 h; for cell number change: measured here: cell count max response, cells fed with added oleic acid
# How it was run: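 Drosophila S3 cells got compounds at several concentrations plus oleic acid (400 uM solution). Laser-scanning cytometry with 488 nm excitation read lipid droplets at 500-530 nm and cells at 575-640 nm. Percent activity was relative to 20 uM Triacsin C.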
# [1] = measured here: cell number channel AC50, cells fed with added oleic acid
# [2] = measured here: lipid fluorescence (Fed channel) AC50, cells fed with added oleic acid
SMILES,cell number change [%],AC50 [1],AC50 [2]
Cc1csc(SC(C)C(=O)NC2CCCCC2C)n1 (stereo not drawn),-33.3,"25.9 µM [falling, single point]",–
O=C(c1cc(C2CC2)nn1-c1ccccc1)N1CCN(S(=O)(=O)c2c(F)cccc2F)CC1,-27.2,–,"29.1 µM [falling, single point]"
Cc1ccccc1C(=O)NCCCNC(=O)c1cnccn1,2.56,–,"10.3 µM [rising, partial curve]"
COC(=O)CC(c1ccc(C(C)C)cc1)n1cccc1 (stereo not drawn),-15.5,–,–
Cc1cccc(-c2c3c(=O)n(C)c(=O)n(C)c3cn2C(C)C)c1,9.29,–,"3.66 µM [falling, partial curve]"
CC(Oc1ccc(Cl)cc1Cl)C(=O)OCn1nnc2ccccc2c1=O (stereo not drawn),-40,"2.91 µM [falling, full curve]","20.6 µM [falling, partial curve]"
O=C(COC(=O)c1ccc2ncsc2c1)NCc1ccc(Cl)cc1,-32.8,"29.1 µM [falling, single point]",–
Cc1ccc(C)n1-c1ncc(Br)cn1,–,–,"35.5 µM [falling, single point]"
O=C(NCC1CCN(Cc2ccccc2F)CC1)C1CCCN(c2ncnc3c2nc2n3CCCCC2)C1 (stereo not drawn),10.4,–,"20.6 µM [rising, single point]"
Cc1nc(-c2ccc(-n3nncc3-c3ccco3)cc2)cs1,2.51,–,"0.259 µM [rising, partial curve, poor fit]"
COc1ccc(S(=O)(=O)NCC2CCCN(C(=O)CSC)C2)cc1 (stereo not drawn),2.97,–,–
O=C(CSc1ncc(-c2ccc(F)cc2)[nH]1)Nc1cccc(O)c1,-20.4,–,"3.26 µM [falling, single point]"
O=C(c1ccco1)N1CCC(c2nc3c(nnn3Cc3ccc(F)cc3)c(=O)[nH]2)CC1,12.1,–,–
Cn1c(=O)c(=O)n(C)c2cc(S(=O)(=O)N3CCN(c4cccc(C(F)(F)F)c4)CC3)ccc21,3.68,–,–
CC(C)C(=O)C1=Cc2cccc([N+](=O)[O-])c2OC1N1CCOCC1 (stereo not drawn),–,–,"0.517 µM [falling, single point]"
O=C(NCc1ccc2c(c1)OCO2)c1ccc(CN2CCc3ccccc3C2)cc1,-36.1,"0.00461 µM [falling, full curve, poor fit]",–
COc1ccc(S(=O)(=O)NN(C)c2ncc(C(F)(F)F)cc2Cl)cc1,-14.4,–,–
COc1ccc(S(=O)(=O)N2CCOCC2)cc1NC(=O)COc1ccccc1OC,10.7,–,"16.4 µM [falling, single point]"
CNc1c(NS(=O)(=O)c2ccc(C3CCCCC3)cc2)c(=O)oc2ccccc12,–,–,"29.1 µM [rising, single point]"
COc1cccc(F)c1C(C[N+](=O)[O-])c1c(N)n(C)c(=O)n(C)c1=O (stereo not drawn),-37.3,"23.1 µM [falling, single point]","25.9 µM [falling, partial curve]"

# Fetched one by one from the entries so far (2):
SMILES,cell number change [%],AC50 [1],AC50 [2]
O=C(COC(=O)c1ccc2ncsc2c1)NCc1ccc(Cl)cc1,-32.8,"29.1 µM [falling, single point]",–
Cc1ccccc1C(=O)NCCCNC(=O)c1cnccn1,2.56,–,"10.3 µM [rising, partial curve]"

# Next part

SMILES,cell number change [%],AC50 [1],AC50 [2]
CCN1CCCc2cc(CN(CCN3CCOCC3)C(=S)Nc3cccc(OC)c3)ccc21,12.3,"6.51 µM [rising, single point]",–
Cc1ccc(Oc2cc(C)nc(-c3ccccc3O)n2)cc1,-30.5,"7.31 µM [falling, partial curve]","11.6 µM [falling, partial curve]"
CC(=O)N1c2c(cc(Br)cc2S(=O)(=O)N2CCN(c3ccccn3)CC2)CC1C (stereo not drawn),64.3,"5.17 µM [rising, full curve]","6.51 µM [rising, single point]"
CCCCCCn1c(CN2CCCC(C)C2)nc2c1c(=O)n(C)c(=O)n2C (stereo not drawn),16.5,"6.51 µM [rising, single point]","23.1 µM [rising, partial curve]"
Cc1cnc(NC(=O)C2CCCO2)s1 (stereo not drawn),-19.5,"7.31 µM [falling, partial curve, poor fit]","1.64 µM [falling, partial curve, poor fit]"
Cc1c(CN2CCC(n3nccc3NC(=O)C3CC3)CC2)[nH]c2ccccc12,20.9,–,"11.6 µM [rising, partial curve]"
COc1ccccc1C(CNC(=O)CNC(=O)c1ccccc1Cl)N1CCCC1 (stereo not drawn),-17.3,"0.651 µM [falling, full curve, poor fit]","3.66 µM [falling, single point]"
CC1CCCCC1NC(=O)CSc1nnnn1-c1ccccc1 (stereo not drawn),-4.3,–,–
CCn1c(SCC(=O)NC(C)(C)C)nc(O)cc1=O,–,"6.51 µM [rising, single point]",–
CN1C(=O)NC(NC(=O)c2cccs2)(C(F)(F)F)C1=O (stereo not drawn),-7.5,–,–
Cc1nc2cc(C(=O)N3CCc4ccccc43)ccc2n1-c1ccc(F)c(F)c1,-2.5,"0.116 µM [rising, full curve, poor fit]","0.146 µM [rising, full curve, poor fit]"
CCOC(=O)c1cc(C#N)c(SCc2cccc3ccccc23)nc1C,91.2,"10.3 µM [rising, partial curve]","16.4 µM [rising, partial curve]"
NS(=O)(=O)c1ccc(CCNC(=O)c2ccccc2OCc2ccc(F)cc2)cc1,22.4,–,"2.82 µM [falling, partial curve]"
CSc1ncccc1C(=O)N(C)CC(=O)Nc1ccc(Cl)cc1,8.7,–,–
CC(=O)Oc1cccc(C(=O)Nc2ccc3c(c2)C(=O)N(CC2CCCO2)C3=O)c1 (stereo not drawn),-40.2,"7.31 µM [falling, partial curve, poor fit]",–
CCOC(=O)c1ccc(NC(=O)C2C3CCCCC32)cc1 (stereo not drawn),-18.3,"3.26 µM [falling, partial curve, poor fit]",–
CC1(C(=O)OCC(=O)NCCNC(=O)COC(=O)C2(C)CC2(Cl)Cl)CC1(Cl)Cl (stereo not drawn),14,–,–
CNCc1ccccc1Sc1ccc(OC)c(OC)c1,19.3,–,"8.2 µM [rising, partial curve, poor fit]"
Cc1cc(=O)nc2c3ccccc3n(CC(=O)Nc3ccccc3Br)n12,-12.6,–,–
